Test results: PubChem BioAssay AID485314 (National Center for Advancing Translational Sciences (NCATS), 2010)
The whole screen tested about 340,000 compounds, of which about 4,500 (1.3%) were called active. The shares of active, inactive and inconclusive entries below differ from those in the screen. Calls follow the shape of the dose curve; as a rule, active = well fitted inhibition curve with a large enough effect; inconclusive = small, poorly fitted or top-dose-only effect, or another doubt; inactive = no such curve, though single readings can be large or run the other way. Potencies of inconclusive entries are doubtful fits and often do not repeat.

These compounds were tested against DNA polymerase beta (Homo sapiens) (UniProt P06746) (assay: qHTS Assay for Inhibitors of DNA Polymerase Beta). Conditions: Pol beta primer extension/strand displacement, fluorescence kinetic; series mostly up to 114 µM.
Summary of the method: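 Homogeneous kinetic assay of primer extension and strand displacement by 10 nM Pol beta, preincubated 15 min at room temperature with compound before 50 nM substrate (final) was added. Read at 0 and 10 min; four-parameter Hill fit.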
Potency is read from the fitted curve at half-maximal effect.

SMILES	Potency
CCOc1ccc2c(c1)OC(c1ccc(OC)cc1)(C(F)(F)F)NC2=O (stereo unspecified)	inconclusive: 5.01 µM [inhibitor, full curve]
O=C(Nc1ccc2c(c1)OCO2)c1cc2ncc(Br)cn2n1	active: 28.2 µM
O=S1(=O)c2ccccc2N(Cc2cccc(C(F)(F)F)c2)c2ccccc21	inactive
COc1ccc(Cc2nnc(Nc3ccccc3)s2)cc1Br	active: 56.2 µM
S=C1SCN(Cc2ccccc2)CN1Cc1ccccc1	inactive
COc1ccc(C(=O)N2c3ccccc3C(C)(c3ccc(Cl)cc3)CC2(C)C)cc1 (stereo unspecified)	inactive
Cc1ccc(-c2onc(C)c2C)cc1S(=O)(=O)N1c2ccccc2CC1C (stereo unspecified)	inconclusive: 79.4 µM [inhibitor, single point]
Fc1ccc(CNc2nc(-c3cccnc3)nc3ccccc23)cc1	inconclusive: 14.1 µM [inhibitor, full curve, poor fit]
COc1ccc(CC(=O)N/N=C/c2cccn2-c2ccc([N+](=O)[O-])cc2)cc1OC	inconclusive: 79.4 µM [inhibitor, single point]
Nc1ccc(NC(=O)c2ccc(C(=O)Nc3ccc(N)cc3)cc2)cc1	inconclusive: 89.1 µM [inhibitor, single point]
O=C(O)/C(=C\c1ccccc1Cl)c1ccc(S(=O)(=O)N2CCCCC2)s1	inconclusive: 31.6 µM [inhibitor, single point]
O=c1cc(C(F)(F)F)[nH]c(=O)n1C1CCCCC1	inactive
COC(=O)c1ccc(NC(=O)CC2C(=O)N(c3cccc(OC)c3)C(=O)N2Cc2cccs2)cc1 (stereo unspecified)	inactive
Cc1cc(C)c(NC(=O)c2cc(S(=O)(=O)N3CCC4(CC3)OCCO4)ccc2F)c(C)c1	inactive
Cc1ccc(-c2nc(NC(=O)CSc3cc(C)c4ccccc4n3)ns2)cc1	active: 8.91 µM
N#Cc1cnn2c(N)c(-c3ccc(Cl)cc3)cnc12	inconclusive: 17.8 µM [inhibitor, partial curve]
CCC(Sc1ccccc1C(=O)O)C(=O)O (stereo unspecified)	inconclusive: 63.1 µM [inhibitor, partial curve, poor fit]
O=C(Nc1cccc([N+](=O)[O-])c1)c1cnccn1	active: 39.8 µM
O=C(NNc1c(F)c(F)cc(F)c1F)c1cc2ccccc2oc1=O	inactive
CCN(CC)CCOc1ccc2c(c1)C(=NO)c1cc(OCCN(CC)CC)ccc1-2	active: 39.8 µM
CCc1cccc(C)c1NS(=O)(=O)c1c(C(=O)N2CCC(C)CC2)c(C)n(C)c1C	inactive
O=C(Nc1ccc(S(=O)(=O)NC2=NCCCCC2)cc1)c1ccco1	inconclusive: 0.158 µM [inhibitor, full curve, poor fit]
O=C1CC(=O)CC(c2ccco2)C1	inconclusive: 17.8 µM [inhibitor, full curve, poor fit]

SMILES	Potency
O=C(Nc1nnc(S(=O)(=O)N2CCCc3ccccc32)s1)c1cccc(Cl)c1	inactive
C=CCSc1ncc(C(=O)OCC)c(N)n1	inactive
COC(=O)c1cccc(Cn2c(Cl)c(/C=N/Nc3ccccc3C)sc2=O)c1	inconclusive: 70.8 µM [inhibitor, partial curve]
CCC(C)NC(=O)CSC1=Nc2ccccc2C2=NC(CCC(=O)NCc3ccco3)C(=O)N12 (stereo unspecified)	inactive
O=C(CCS(=O)(=O)c1ccc(Br)s1)Nc1ccccc1Br	inconclusive: 10 µM [inhibitor, full curve]
CC(=O)c1ccc(NC(=O)COC(=O)c2ccccc2Nc2ccccc2)cc1	inconclusive: 5.01 µM [inhibitor, partial curve, poor fit]
Cc1cc(-c2nc3c4c5c(sc4[nH]c(=O)n3n2)CCC5)c(C)o1	active: 3.55 µM
CCC(=O)N1CCc2cc(S(=O)(=O)CCC(=O)Nc3ccc(F)c(F)c3)ccc21	inconclusive: 25.1 µM [inhibitor, partial curve, poor fit]
O=C(NC1CCCC1)C(=O)N(Cc1cccnc1)C(C(=O)NC1CCCC1)c1ccco1 (stereo unspecified)	inactive
COc1ccccc1-n1c(SCC(=O)c2ccc(O)cc2O)nc2cc([N+](=O)[O-])ccc21	inconclusive: 17.8 µM [inhibitor, full curve]
NC(=O)C1CCN(C(=O)c2ccc(NC(=O)c3nsc4ccccc34)cc2)CC1	inactive
Cc1cc(F)ccc1NCc1ccc([N+](=O)[O-])cc1	inconclusive: 0.708 µM [inhibitor, partial curve, poor fit]
CCc1nn2c(=O)cc(COC(=O)COc3ccc(OC)cc3)nc2s1	inconclusive: 89.1 µM [inhibitor, single point]
CCOc1ccc(CCNC(=O)c2cn(C)c3ccc(S(=O)(=O)N4CCCCC4)cc3c2=O)cc1OCC	inconclusive: 56.2 µM [inhibitor, single point]
CCc1cc(OCCCSc2nc(C)cc(=O)[nH]2)ccc1Cl	inconclusive: 89.1 µM [inhibitor, single point]
O=C1CCCN1CCCNS(=O)(=O)c1ccc(Br)cc1	inconclusive: 100 µM [inhibitor, single point]
COc1ccc(Nc2cc(Cl)nc(N)n2)cc1	inconclusive: 2.51 µM [inhibitor, single point]
Cc1cc2c(c(=O)n1-c1ccccc1)C1O[C@](c3ccsc3)(Cc3ccccc31)O2	active: 5.01 µM
CCCCC(=O)NC1CC(=O)N(c2ccc3c(c2)OCCO3)C1 (stereo unspecified)	inactive
CCOC(=O)CN1N=C(/C=C/c2ccc(OC)cc2)CCC1=O	inconclusive: 4.47 µM [inhibitor, full curve, poor fit]
CC(C)CCNC(=O)Cc1ccc(NC(=O)N2CCCCc3ccccc32)cc1	inconclusive: 79.4 µM [inhibitor, partial curve]
CCc1ccc(/C=C2/C(=O)N(c3ccccc3)C(=S)N2CC(=O)OC)s1	inconclusive: 79.4 µM [inhibitor, single point]
Nc1c(C(=O)O)ccc2c1C(=O)c1ccccc1C2=O	inconclusive: 63.1 µM [inhibitor, partial curve, poor fit]

Part of the list above in order of number of heavy atoms, low to high.
SMILES	Potency
C=CCSc1ncc(C(=O)OCC)c(N)n1	inactive
Cc1cc(F)ccc1NCc1ccc([N+](=O)[O-])cc1	inconclusive: 0.708 µM [inhibitor, partial curve, poor fit]
O=C(CCS(=O)(=O)c1ccc(Br)s1)Nc1ccccc1Br	inconclusive: 10 µM [inhibitor, full curve]
CCc1nn2c(=O)cc(COC(=O)COc3ccc(OC)cc3)nc2s1	inconclusive: 89.1 µM [inhibitor, single point]
O=C(Nc1nnc(S(=O)(=O)N2CCCc3ccccc32)s1)c1cccc(Cl)c1	inactive
CCC(=O)N1CCc2cc(S(=O)(=O)CCC(=O)Nc3ccc(F)c(F)c3)ccc21	inconclusive: 25.1 µM [inhibitor, partial curve, poor fit]
COc1ccccc1-n1c(SCC(=O)c2ccc(O)cc2O)nc2cc([N+](=O)[O-])ccc21	inconclusive: 17.8 µM [inhibitor, full curve]
CCOc1ccc(CCNC(=O)c2cn(C)c3ccc(S(=O)(=O)N4CCCCC4)cc3c2=O)cc1OCC	inconclusive: 56.2 µM [inhibitor, single point]
